Assay results reported in patent publication US20230285601A1, “NON DEGRADABLE RADIO-OPAQUE EMBOLISATION MICROSPHERE” (GUERBET, priority 2019, published 2023).
At least one structure is not confirmed: it was looked up by name or label, or the drawing left a doubt.

Assays:
[1] = Loading of anticancer drugs on the radiopaque microspheres; assay type: physicochemical; details: 100-300 µm radiopaque microspheres with methacrylic acid (batch 13)
Procedure: The tests of loading and controlled release of anticancer drugs were performed on radiopaque microspheres of 100-300 µm sterilized by autoclaving and comprising or not comprising an ionized or ionizable monomer such as methacrylic acid.
The microspheres with methacrylic acid are microspheres from batch 13, the composition of which is given in example 3. The microspheres without methacrylic acid have the same composition as the microspheres from batches L1 and L1Bis described in example 5.
Loading with doxorubicin: the target for loading is 37.5 mg of doxorubicin per ml of microspheres. […] Measurement of the residual amount of doxorubicin (absorbance at 490 nm) present in the supernatants serves for determining the amount of drug loaded on the microspheres.
Loading with irinotecan: the loading target is 50 mg of irinotecan per mL of microspheres. […] After 30 minutes, measurement of the residual amount of irinotecan (absorbance at 370 nm) in the supernatant serves for determining the amount loaded on the microspheres.
Loading with sunitinib: The sediments of the radiopaque microspheres are incubated for 1 h at room temperature in 10 mL of sunitinib in the form of malate (LC Laboratories) at 1 mg/mL in water. […] After stirring for 1 h on a wheel, measurement of the residual amount of sunitinib (absorbance at 405 nm) in the supernatant serves for determining the amount loaded on the microspheres. […]

[2] = Release in vitro of anticancer drugs from the radiopaque microspheres; assay type: physicochemical; details: for Release (elution in PBS), in words: compared with irinotecan; for Time for 50% release / Time for complete release / % elution at 1 h: microspheres with methacrylic acid, 37° C., 150 rpm; for % elution at 1 h: pH 7.4 buffer
Procedure: To study the release of doxorubicin from the microspheres, the sediments are washed in 10 mL of water, before adding 50 mL of buffer 50 mM Tris-HCl, 0.9% NaCl, pH 7.4. Incubation takes place at 37° C. with stirring. The release of doxorubicin is measured at different times at 490 nm.
To study the release of irinotecan, the microspheres are washed in 10 mL of water, and then 50 mL of PBS (10 mM Na2HPO4, 1.8 mM KH2PO4, 138 mM NaCl, 2.7 mM KCl, pH 7.4) equilibrated at 37° C. is added. The release of the drug over time is measured by reading the absorbance at 370 nm.
To study the release of sunitinib, the microspheres are washed in 10 mL of water, and then 50 mL of PBS equilibrated at 37° C. is added. The release of the drug over time is measured by reading the absorbance at 405 nm.
To study the release of vandetanib, the microspheres are washed in 10 mL of water, and then 50 mL of PBS equilibrated at 37° C. is added. The release of the drug over time is measured by reading the absorbance at 254 nm.

Row | SMILES | Loading (mg of drug / mL of wet sediment) [1] | Release (elution in PBS), in words [2] | Time for 50% release [2] [days] | Time for complete release [2] [days] | % elution at 1 h [2] [%]
1 | COc1cc2c(Nc3ccc(Br)cc3F)ncnc2cc1OCC1CCN(C)CC1 [Vandetanib, vandetanib] | 11 mg of drug / mL of wet sediment | slower, being spread over several days | 2 | 15 | 17
2 | CCN(CC)CCNC(=O)c1c(C)[nH]c(/C=C2\C(=O)Nc3ccc(F)cc32)c1C [Sunitinib, sunitinib] | 37 mg of drug / mL of wet sediment | slower, being spread over several days | 6 | > 15 | 12
